These results are taken from PMC8453168.

This experiment concerns the target T1, PTPRN (tyrosine phosphatase receptor type N), in U87 cells (human) (UniProt Q16849).
T1 sequence: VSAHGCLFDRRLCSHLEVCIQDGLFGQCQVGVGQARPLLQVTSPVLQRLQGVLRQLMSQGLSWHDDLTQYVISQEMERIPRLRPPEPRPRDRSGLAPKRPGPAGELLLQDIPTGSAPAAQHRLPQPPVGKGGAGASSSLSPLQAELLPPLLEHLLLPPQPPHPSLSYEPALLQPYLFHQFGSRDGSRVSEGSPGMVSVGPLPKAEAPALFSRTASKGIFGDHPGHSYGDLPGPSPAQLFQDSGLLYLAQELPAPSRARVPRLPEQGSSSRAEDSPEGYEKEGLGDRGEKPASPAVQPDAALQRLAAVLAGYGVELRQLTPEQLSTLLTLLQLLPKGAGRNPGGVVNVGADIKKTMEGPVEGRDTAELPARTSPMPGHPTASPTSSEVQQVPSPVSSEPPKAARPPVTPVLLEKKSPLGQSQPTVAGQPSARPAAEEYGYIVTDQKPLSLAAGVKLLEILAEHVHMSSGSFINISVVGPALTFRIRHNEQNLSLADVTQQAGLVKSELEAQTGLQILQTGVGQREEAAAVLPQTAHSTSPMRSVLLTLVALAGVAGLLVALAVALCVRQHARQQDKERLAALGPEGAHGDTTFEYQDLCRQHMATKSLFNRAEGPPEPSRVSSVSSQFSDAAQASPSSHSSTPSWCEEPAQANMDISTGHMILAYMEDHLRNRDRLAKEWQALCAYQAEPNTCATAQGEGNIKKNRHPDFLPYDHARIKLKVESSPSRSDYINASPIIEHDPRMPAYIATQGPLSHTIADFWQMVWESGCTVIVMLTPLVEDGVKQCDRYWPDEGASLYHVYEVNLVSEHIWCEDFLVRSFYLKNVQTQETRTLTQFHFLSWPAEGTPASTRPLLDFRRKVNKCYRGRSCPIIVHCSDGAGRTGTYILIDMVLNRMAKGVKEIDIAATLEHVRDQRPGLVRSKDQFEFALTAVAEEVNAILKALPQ
Nature of the experiment: co-IP; immunoprecipitation (anti-FLAG) from lysate of transfected U87 cells (20 mM Tris-HCl pH 8, 137 mM NaCl, 0.5% Triton X-100, 2 mM EDTA, 4°C), western blot.

No constants are given. Whether binding was seen depends on the method and setting. In cells and extracts the contact can be indirect. Some results given as binding are weak or reduced against the parent protein; the word gives no strength.

For the substance “Heat shock protein 90 alpha family class A member 1 (HSP90AA1), endogenous in U87 cells (from UniProt P07900 1-732)”, the binding result was “binds”.
